Laboratory results as given in the supplement of paper PMC12819154, “High-throughput peptide-centric local stability assay extends protein–ligand identification to membrane proteins, tissues and bacteria” (Nature Structural & Molecular Biology, 2025).
The list shows a part of the results. Most entries show no effect beyond the scatter of the controls.

The chains behind the UniProt entries cited, without tags or fusion partners. Where a name states a change or a piece, a line headed by the entry shows the natural chain unless it says otherwise.
UniProt Q5PR69: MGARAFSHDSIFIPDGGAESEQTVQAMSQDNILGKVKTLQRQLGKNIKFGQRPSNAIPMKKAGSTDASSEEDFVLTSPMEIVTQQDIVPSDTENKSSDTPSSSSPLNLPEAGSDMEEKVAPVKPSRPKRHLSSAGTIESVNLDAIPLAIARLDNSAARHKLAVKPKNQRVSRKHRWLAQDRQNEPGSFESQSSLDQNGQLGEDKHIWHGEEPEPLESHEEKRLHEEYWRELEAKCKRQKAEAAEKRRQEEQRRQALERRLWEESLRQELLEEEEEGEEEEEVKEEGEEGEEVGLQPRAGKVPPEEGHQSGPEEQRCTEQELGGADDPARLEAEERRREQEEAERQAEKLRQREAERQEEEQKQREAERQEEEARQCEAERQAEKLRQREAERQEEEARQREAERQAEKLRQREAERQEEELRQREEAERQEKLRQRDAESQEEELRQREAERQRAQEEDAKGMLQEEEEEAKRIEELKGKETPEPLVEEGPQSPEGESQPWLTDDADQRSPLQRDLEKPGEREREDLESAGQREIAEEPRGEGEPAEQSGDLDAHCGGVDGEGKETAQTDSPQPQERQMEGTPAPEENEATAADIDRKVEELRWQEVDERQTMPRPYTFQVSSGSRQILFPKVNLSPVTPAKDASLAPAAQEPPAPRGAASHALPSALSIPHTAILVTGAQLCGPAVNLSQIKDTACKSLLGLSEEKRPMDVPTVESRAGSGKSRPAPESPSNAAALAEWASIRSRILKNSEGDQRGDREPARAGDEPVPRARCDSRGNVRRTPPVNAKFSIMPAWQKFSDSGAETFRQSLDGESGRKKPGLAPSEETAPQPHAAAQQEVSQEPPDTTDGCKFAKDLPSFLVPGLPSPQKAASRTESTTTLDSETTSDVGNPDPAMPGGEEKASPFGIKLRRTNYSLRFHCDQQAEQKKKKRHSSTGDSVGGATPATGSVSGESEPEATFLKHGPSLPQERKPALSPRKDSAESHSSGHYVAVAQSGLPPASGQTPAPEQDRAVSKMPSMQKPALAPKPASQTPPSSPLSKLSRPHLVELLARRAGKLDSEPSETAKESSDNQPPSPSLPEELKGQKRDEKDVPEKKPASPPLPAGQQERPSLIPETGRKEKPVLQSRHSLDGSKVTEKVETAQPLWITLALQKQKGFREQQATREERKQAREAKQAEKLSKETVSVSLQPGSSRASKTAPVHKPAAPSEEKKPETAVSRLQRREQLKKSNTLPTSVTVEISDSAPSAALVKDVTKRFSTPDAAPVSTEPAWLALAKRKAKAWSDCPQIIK
UniProt Q5SFM8: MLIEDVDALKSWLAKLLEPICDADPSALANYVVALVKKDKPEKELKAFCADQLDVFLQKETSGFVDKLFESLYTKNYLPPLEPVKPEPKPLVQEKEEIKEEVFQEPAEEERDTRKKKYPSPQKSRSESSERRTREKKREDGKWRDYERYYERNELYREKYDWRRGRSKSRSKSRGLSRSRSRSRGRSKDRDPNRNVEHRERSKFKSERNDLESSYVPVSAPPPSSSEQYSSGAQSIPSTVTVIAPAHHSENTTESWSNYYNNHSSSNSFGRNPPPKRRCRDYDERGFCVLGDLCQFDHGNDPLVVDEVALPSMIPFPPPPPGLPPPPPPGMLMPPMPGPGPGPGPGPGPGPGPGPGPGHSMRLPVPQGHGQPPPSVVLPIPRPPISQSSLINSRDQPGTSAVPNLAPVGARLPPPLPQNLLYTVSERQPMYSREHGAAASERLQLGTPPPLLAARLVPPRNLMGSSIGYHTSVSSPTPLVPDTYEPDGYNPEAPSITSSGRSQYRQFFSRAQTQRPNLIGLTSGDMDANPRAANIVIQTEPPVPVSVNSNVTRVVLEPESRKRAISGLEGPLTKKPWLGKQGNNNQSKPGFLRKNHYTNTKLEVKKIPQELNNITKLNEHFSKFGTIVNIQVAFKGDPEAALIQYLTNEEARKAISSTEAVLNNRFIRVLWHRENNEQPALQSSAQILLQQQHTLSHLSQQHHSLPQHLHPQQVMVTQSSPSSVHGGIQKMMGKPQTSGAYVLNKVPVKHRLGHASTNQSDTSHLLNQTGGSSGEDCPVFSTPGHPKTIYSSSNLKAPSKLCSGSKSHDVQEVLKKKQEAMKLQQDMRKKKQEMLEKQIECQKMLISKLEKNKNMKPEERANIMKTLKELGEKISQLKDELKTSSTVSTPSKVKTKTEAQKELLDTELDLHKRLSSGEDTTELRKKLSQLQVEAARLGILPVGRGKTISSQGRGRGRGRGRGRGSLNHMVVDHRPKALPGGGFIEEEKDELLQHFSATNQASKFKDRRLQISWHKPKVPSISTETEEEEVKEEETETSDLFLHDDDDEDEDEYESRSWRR
UniProt Q61233: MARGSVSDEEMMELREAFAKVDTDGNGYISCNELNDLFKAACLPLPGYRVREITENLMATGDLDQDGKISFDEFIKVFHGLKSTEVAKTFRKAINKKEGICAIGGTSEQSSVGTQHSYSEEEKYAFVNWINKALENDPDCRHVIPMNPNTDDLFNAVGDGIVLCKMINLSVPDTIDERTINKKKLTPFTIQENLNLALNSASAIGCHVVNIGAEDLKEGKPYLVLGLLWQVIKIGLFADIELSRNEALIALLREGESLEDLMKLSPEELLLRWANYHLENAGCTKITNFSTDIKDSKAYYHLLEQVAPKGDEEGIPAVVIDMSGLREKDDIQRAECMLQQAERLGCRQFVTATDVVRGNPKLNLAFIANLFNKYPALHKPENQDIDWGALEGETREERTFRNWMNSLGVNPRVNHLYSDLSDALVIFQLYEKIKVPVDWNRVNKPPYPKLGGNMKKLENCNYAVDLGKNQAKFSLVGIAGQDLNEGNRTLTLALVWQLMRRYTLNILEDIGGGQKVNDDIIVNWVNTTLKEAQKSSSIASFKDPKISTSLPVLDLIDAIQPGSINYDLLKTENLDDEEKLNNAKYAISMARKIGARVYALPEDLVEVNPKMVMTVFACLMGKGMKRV
UniProt Q60598, whole entry: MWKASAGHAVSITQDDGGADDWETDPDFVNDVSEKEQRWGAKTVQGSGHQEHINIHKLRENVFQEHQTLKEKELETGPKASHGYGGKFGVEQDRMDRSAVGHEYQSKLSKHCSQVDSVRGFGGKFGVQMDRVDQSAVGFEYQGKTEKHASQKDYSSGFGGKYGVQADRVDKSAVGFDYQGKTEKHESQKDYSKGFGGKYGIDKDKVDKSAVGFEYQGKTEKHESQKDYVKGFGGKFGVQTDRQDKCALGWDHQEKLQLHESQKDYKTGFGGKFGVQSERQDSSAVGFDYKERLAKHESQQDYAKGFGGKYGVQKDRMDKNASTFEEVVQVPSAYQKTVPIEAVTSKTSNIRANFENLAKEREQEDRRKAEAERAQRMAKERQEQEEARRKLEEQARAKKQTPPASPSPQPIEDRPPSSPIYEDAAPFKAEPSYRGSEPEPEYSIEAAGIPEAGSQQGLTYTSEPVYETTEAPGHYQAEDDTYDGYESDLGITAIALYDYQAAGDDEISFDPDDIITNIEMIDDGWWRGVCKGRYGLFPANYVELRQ
UniProt Q60749, whole entry: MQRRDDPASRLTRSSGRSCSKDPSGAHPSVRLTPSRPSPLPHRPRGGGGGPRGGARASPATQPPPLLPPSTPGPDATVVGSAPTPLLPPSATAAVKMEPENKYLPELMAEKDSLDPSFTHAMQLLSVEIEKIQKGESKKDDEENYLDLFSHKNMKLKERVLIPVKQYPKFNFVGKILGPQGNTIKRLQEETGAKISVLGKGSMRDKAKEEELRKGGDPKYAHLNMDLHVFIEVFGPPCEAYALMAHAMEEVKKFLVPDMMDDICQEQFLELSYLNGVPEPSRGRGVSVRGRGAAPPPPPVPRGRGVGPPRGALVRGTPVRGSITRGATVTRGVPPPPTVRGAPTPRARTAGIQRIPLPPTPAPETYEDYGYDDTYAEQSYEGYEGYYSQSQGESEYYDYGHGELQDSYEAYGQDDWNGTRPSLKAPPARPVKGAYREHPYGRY
UniProt Q61012: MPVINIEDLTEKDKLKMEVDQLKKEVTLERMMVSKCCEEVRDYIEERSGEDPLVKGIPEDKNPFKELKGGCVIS
UniProt Q60769: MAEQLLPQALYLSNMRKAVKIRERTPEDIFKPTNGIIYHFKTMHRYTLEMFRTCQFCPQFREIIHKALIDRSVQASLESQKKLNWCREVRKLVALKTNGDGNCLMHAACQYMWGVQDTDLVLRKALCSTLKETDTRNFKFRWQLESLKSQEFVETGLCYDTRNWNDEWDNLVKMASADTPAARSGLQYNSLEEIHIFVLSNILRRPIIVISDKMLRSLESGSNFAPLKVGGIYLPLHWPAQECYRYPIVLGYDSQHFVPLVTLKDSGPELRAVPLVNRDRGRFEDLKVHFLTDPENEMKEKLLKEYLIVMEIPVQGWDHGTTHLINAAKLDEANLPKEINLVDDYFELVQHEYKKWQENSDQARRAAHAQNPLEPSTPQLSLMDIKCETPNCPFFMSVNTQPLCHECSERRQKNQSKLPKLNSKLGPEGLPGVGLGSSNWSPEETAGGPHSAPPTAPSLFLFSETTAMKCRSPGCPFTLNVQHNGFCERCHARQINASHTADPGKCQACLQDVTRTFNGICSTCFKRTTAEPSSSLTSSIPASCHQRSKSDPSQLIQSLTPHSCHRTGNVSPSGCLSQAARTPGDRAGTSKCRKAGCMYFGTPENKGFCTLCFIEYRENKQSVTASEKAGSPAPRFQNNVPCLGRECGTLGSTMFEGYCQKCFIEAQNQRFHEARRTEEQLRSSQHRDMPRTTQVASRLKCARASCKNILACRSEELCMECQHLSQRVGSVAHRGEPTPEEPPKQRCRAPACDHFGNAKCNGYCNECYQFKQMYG
UniProt Q61062: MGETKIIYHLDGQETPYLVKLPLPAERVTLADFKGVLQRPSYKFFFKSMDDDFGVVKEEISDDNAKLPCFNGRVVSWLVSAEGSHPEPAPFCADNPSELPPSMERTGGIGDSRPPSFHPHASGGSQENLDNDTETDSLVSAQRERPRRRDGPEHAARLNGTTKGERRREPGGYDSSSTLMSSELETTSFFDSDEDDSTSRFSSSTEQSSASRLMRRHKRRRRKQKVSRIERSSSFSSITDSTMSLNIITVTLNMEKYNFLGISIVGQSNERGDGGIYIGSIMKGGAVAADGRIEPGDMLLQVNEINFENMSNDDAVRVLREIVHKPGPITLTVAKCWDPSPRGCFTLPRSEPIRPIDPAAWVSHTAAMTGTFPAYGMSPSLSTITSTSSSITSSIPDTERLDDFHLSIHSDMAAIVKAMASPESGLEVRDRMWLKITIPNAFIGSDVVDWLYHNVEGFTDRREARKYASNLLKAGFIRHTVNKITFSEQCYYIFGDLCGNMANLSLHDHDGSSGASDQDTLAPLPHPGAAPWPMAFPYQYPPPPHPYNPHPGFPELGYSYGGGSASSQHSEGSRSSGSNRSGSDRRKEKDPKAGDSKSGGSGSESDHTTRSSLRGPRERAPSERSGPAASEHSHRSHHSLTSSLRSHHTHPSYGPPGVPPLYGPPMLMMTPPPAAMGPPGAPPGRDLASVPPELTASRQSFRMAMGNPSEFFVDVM
UniProt Q60829: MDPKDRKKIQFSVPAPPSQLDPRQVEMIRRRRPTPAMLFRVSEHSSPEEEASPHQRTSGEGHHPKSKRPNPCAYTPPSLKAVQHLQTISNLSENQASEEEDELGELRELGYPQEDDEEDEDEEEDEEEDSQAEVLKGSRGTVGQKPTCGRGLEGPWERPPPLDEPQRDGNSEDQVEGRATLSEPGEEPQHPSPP
UniProt Q60710: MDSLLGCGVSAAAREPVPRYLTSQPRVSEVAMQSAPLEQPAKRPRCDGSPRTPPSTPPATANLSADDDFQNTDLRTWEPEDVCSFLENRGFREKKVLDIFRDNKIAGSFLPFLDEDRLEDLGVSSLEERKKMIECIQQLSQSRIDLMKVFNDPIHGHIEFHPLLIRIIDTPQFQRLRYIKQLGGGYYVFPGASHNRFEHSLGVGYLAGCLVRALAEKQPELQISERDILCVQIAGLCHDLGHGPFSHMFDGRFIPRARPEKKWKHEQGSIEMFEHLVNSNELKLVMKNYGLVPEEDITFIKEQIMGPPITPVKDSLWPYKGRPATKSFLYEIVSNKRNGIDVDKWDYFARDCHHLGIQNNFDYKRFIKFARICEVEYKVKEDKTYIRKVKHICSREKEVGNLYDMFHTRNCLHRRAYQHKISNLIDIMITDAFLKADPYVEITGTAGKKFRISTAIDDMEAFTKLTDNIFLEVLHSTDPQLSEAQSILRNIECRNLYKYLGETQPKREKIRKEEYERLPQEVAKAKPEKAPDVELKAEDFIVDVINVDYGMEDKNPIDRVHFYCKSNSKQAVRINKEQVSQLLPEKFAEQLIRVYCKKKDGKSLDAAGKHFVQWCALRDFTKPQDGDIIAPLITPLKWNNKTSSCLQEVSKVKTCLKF
UniProt Q5EBG6: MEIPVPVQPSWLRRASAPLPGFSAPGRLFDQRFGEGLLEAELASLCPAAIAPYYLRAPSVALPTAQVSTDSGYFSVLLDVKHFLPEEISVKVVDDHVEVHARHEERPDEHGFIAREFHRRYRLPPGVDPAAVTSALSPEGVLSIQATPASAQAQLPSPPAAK

compound: CN[C@@H]1C[C@H]2O[C@@](C)([C@@H]1OC)n1c3ccccc3c3c4c(c5c6ccccc6n2c5c31)C(=O)NC4 [staurosporine]; test: log2 fold change of tryptic peptide abundance, ligand vs vehicle (limited proteolysis) (log2 ratio); higher = more trypsin-susceptible (destabilized); conditions: ligand concentration: 20 uM; sample: mouse liver crude lysate; replicate design: treated separately

| Target | log2 fold change |
| --- | --- |
| UniProt Q5PR69 (peptide sequence: QREAERQEEEQK, peptide start residue: 351) | -0.0631 |
| UniProt Q5SSI6 (peptide sequence: ARPGSGSTPAK, peptide start residue: 23) | 0.316 |
| UniProt Q5SFM8 (peptide sequence: LQLGTPPPLLAAR, peptide start residue: 443) | 0.132 |
| UniProt Q5I043 (peptide sequence: ESVIALYR, peptide start residue: 916) | -0.222 |
| UniProt Q61142 (peptide sequence: VSALEVLPDRVATSR, peptide start residue: 108) | -0.246 |
| UniProt Q5SZA1 (peptide sequence: EKEHITSSVAQQSSSPR, peptide start residue: 245) | 0.084 |
| UniProt Q61315 (peptide sequence: HHVDQPIDYSLK, peptide start residue: 1170) | -0.324 |
| UniProt Q61207 (peptide sequence: QLESNKIPEVDMAR, peptide start residue: 152) | -0.0578 |
| UniProt Q61176 (peptide sequence: SLEIIGAPFSK, peptide start residue: 7) | -0.075 |
| UniProt Q61233 (peptide sequence: ITNFSTDIK, peptide start residue: 286) | -0.826 |
| UniProt Q60598 (peptide sequence: LAKHESQQDYAK, peptide start residue: 293) | -0.734 |
| UniProt Q5SX79 (peptide sequence: KDYSTQELQR, peptide start residue: 245) | -0.336 |
| UniProt Q61144 (peptide sequence: TSLMSAESPTSR, peptide start residue: 18) | 0.124 |
| UniProt Q60634 (peptide sequence: LLAELPASVHALTGVDLSK, peptide start residue: 398) | -0.229 |
| UniProt Q60749 (peptide sequence: VLIPVKQYPKFNFVGK, peptide start residue: 160) | 0.833 |
| UniProt Q61012 (peptide sequence: GIPEDKNPFK, peptide start residue: 56) | 0.0371 |

Rewritten as tab-separated lines: entries from further up.
Target	log2 fold change
UniProt Q5SZA1 (peptide sequence: EKEHITSSVAQQSSSPR, peptide start residue: 245)	0.084
UniProt Q60749 (peptide sequence: VLIPVKQYPKFNFVGK, peptide start residue: 160)	0.833

The results go on.

| Target | log2 fold change |
| --- | --- |
| UniProt Q60769 (peptide sequence: CQACLQDVTR, peptide start residue: 506) | 0.465 |
| UniProt Q61124 (peptide sequence: RLEDSEREETDSEPQAPR, peptide start residue: 10) | 0.0931 |
| UniProt Q5ND52 (peptide sequence: VKFEDIK, peptide start residue: 168) | 0.337 |
| UniProt Q60996 (peptide sequence: LFMEMNQK, peptide start residue: 396) | 0.353 |
| UniProt Q60775 (peptide sequence: AANPKDPVEVGQPSEVLR, peptide start residue: 352) | 0.0895 |
| UniProt Q60722 (peptide sequence: LDDAIHVLR, peptide start residue: 431) | 0.0133 |
| UniProt Q60864 (peptide sequence: HYTEAIK, peptide start residue: 382) | -0.25 |
| UniProt Q61062 (peptide sequence: SGPAASEHSHR, peptide start residue: 625) | 0.77 |
| UniProt Q60829 (peptide sequence: VSEHSSPEEEASPHQR, peptide start residue: 41) | 0.134 |
| UniProt Q61140 (peptide sequence: EAPTDGKR, peptide start residue: 423) | -0.685 |
| UniProt Q60738 (peptide sequence: DAEKAPTVSISCLELSENLEKK, peptide start residue: 453) | -0.21 |
| UniProt Q61166 (peptide sequence: GKFQDNFEFVQWFKK, peptide start residue: 99) | -0.969 |
| UniProt Q60902 (peptide sequence: LPLDVLGR, peptide start residue: 159) | -0.347 |
| UniProt Q60710 (peptide sequence: KVLDIFR, peptide start residue: 95) | 0.143 |
| UniProt Q5EBG6 (peptide sequence: RASAPLPGFSAPGR, peptide start residue: 14) | -0.28 |
